# In the supplement of paper PMC12889115:
# This is one part of the list. These are raw signals, not scaled to a control.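 First-pass screen: polymyxin B was added at a level that permeabilizes the Salmonella outer membrane while sparing the inner membrane. DMSO wells, with and without polymyxin B, defined maximum growth. Because plates differed from one another, each plate's data were ranked separately and the compounds with the lowest OD600 were carried forward as hits.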
# Test system: Salmonella enterica serovar Typhimurium SL1344
# Assay: bacterial growth OD600 after 18 h with compound and polymyxin B; higher = more bacterial growth (less inhibition)
# Conditions: 50 µM, Mueller-Hinton broth
SMILES,bacterial growth OD600 (polymyxin B 1 µg/mL),bacterial growth OD600 (polymyxin B 0.75 µg/mL)
CN(C)c1ncc2c(n1)CCCC2NC1CCC1 (stereo unspecified),0.902,–
Cc1ccc(SC2CCN(C(=O)C3CCC(=O)N(CCN4CCOCC4)C3)CC2)cc1 (stereo unspecified),1.08,–
COc1cccc(-c2ccc(NC(=O)C3CCCN(C(=O)c4cnsn4)C3)cc2)c1 (stereo unspecified),0.02,–
COc1ccc(CCNC2CCN(c3ccc(C(=O)N[C@H]4CCCCNC4=O)cc3)CC2)cc1,–,0.729
O=C(c1cccc(Cl)c1)N1CCCC(Nc2ccc(F)cc2)C1 (stereo unspecified),1.07,–
COC(=O)c1cccc(C(=O)N(C)CC2CCN(CCc3ccc(F)cc3)CC2)c1,1.14,–
Cc1nc2ccccc2n1Cc1cc(C(=O)N(Cc2cnn(C)c2)C(C)C)n[nH]1,0.949,–
Cc1cc(C)n(CC(C)NC(=O)c2coc(Cn3cnc4ccccc43)n2)n1 (stereo unspecified),0.822,–
O=C(CC1=CCCCC1)N1CCC(C2(c3ccccn3)NC(=O)N(CCc3cccs3)C2=O)CC1 (stereo unspecified),–,0.853
CC(C)Nc1ccc(C(=O)N2CCCCC2CCn2cccn2)cn1 (stereo unspecified),0.827,–
CCC(=O)N[C@@H]1c2ccccc2C2(CCN(C(=O)CCC(=O)OC)CC2)[C@H]1OCc1cccnc1,–,0.752
O=C(c1ccc(NC2CCC2)nc1)N1CCCCC1CCn1cccn1 (stereo unspecified),0.93,–
O=C(NCC1(N2CCOCC2)CCCC1)c1coc(COc2cccc(F)c2)n1,0.884,–
COc1ccc(OCc2cc(C(=O)N3CCCCC3CO)n[nH]2)c(Cl)c1 (stereo unspecified),0.881,–
CCN1C(=O)CC(CC(=O)N2CCC[C@H]2C(=O)OC)(c2cccc(C(F)(F)F)c2)C1=O (stereo partly specified),–,0.759
COCCN(CC1CCCN(C2Cc3ccccc3C2)C1)C(=O)C1CCCC1 (stereo unspecified),0.727,–

# Exported bar-delimited: 2 of the compounds above
SMILES | bacterial growth OD600 (polymyxin B 1 µg/mL) | bacterial growth OD600 (polymyxin B 0.75 µg/mL)
CC(C)Nc1ccc(C(=O)N2CCCCC2CCn2cccn2)cn1 (stereo unspecified) | 0.827 | –
CCC(=O)N[C@@H]1c2ccccc2C2(CCN(C(=O)CCC(=O)OC)CC2)[C@H]1OCc1cccnc1 | – | 0.752

# Carrying on.

SMILES,bacterial growth OD600 (polymyxin B 1 µg/mL),bacterial growth OD600 (polymyxin B 0.75 µg/mL)
COC(=O)C1CCCCN1C1CCN(c2ccc(CC(=O)NCCc3cccc(F)c3)cc2)CC1 (stereo unspecified),–,0.919
Cc1nc(C(=O)NCC2Cc3cccc(-c4ncccn4)c3O2)cs1 (stereo unspecified),–,0.854
COCC1CCCN(C(=O)c2ccc(NC3CCC3)nc2)C1 (stereo unspecified),0.941,–
CCOC(=O)CC1CCCCN1Cc1nc(-c2ccc(C)cc2)oc1C (stereo unspecified),0.823,–
COCc1noc(-c2ccc(N(C)CCC3CCCCO3)nc2)n1 (stereo unspecified),0.976,–
COc1cccc(CCC2CCCN(C(=O)c3cscn3)C2)c1 (stereo unspecified),–,0.001
Cc1cnc(C)c(N2CCN(C(=O)C3CCC(=O)N(C4CCCC4)C3)CC2)n1 (stereo unspecified),0.842,–
Cc1ccc(C(=O)N2CCC(C3(c4ccccn4)NC(=O)N(CCc4cccs4)C3=O)CC2)cc1 (stereo unspecified),–,0.773
CCn1c(CN2CCN(Cc3cc(OC)cc(OC)c3)C(CCO)C2)nc2ccccc21 (stereo unspecified),0.933,–
Cc1ncc2c(c1CNC(=O)CSc1ccccc1)CCN(C(=O)c1ccc3c(c1)OCCO3)C2,–,0.777
CC(Cc1ccsc1)NC(=O)c1cc(Cn2ccnc2C(C)C)[nH]n1 (stereo unspecified),–,0.846
CCOC(=O)N1CCN(C(=O)c2ccc(N3CCC(NCc4cnc5ccccn45)CC3)cc2)CC1,–,0.99
COC(=O)CCCC(=O)N1CCCC(CCC(=O)Nc2cc(OC)cc(OC)c2)C1 (stereo unspecified),0.882,–
O=C(CCn1cncn1)NCc1cccnc1Oc1ccccc1F,–,0.855
Cc1cc2c(c(-c3ccccn3)c1)OC(CNC(=O)c1ccoc1)C2 (stereo unspecified),–,0.848
